Results reported in patent publication US20060233704A1 (priority 2000, published 2006).

Assay: general procedure: peptide synthesis; Rink-amide resin; HATU
Conditions: whole synthesis, HPLC

For D-Asp-Tyr-Nle-Gly-Trp-Nle-Asp-Phe-NH2, the “purity (crude or final not stated)” value was >95%.
